# Test results taken from PubChem BioAssay AID540256 (National Center for Advancing Translational Sciences (NCATS), 2011).
# Hit rate of the full screen: of about 300,000 compounds, about 3,700 (1.2%) were called active. The shares of active, inactive and inconclusive entries below differ from those in the screen. The call rests on the fitted dose curve; tested in HEK293 cells. A potency beside an inconclusive call is a rough fit, not a confirmed value.
# Test: qHTS for Inhibitors of binding or entry into cells for Lassa Virus; further: nearly all actives have a fitted effect of over 50% in size
# Details: Lassa virus pseudotype entry inhibition, cell reporter; series mostly up to 37.9 µM
# Potency means the concentration at half of the fitted maximal effect.
row,SMILES,Potency
1,O=C(NCCCN1CCOCC1)c1ccc(CSCc2cccc(Cl)c2)o1,"inconclusive: 35.5 µM [inhibitor, single point]"
2,O=S(=O)(c1ccccc1)c1cnn(-c2ccccc2)c1-c1ccc(F)cc1,inactive
3,CCN(CC)CCNC(=O)c1ccc(NC(=O)c2cn(-c3ccc(F)cc3)nc2-c2cccc(OC)c2)cc1,"inconclusive: 35.5 µM [inhibitor, single point]"
4,Cc1ccc(S(=O)(=O)N2CCN(C(=O)c3ccc(N4CCC(C)CC4)c([N+](=O)[O-])c3)CC2)cc1,"inconclusive: 14.1 µM [inhibitor, partial curve, poor fit]"
5,COC(=O)c1ccccc1NC(=O)[C@H]1O[C@@H]2OC(C)(C)O[C@@H]2[C@H]2OC(C)(C)O[C@H]21,"inconclusive: 11.2 µM [activator, partial curve, poor fit]"
6,CC(=O)Nc1ccc(NC(=O)CCCc2c[nH]c3ccccc23)cc1,inactive
7,CNCc1c(OCc2ccccc2)ccc2ccccc12,"inconclusive: 11.2 µM [inhibitor, single point]"
8,CCOc1ccc2c(c1)C(=NNC(=O)c1ccncc1)c1cc(OCC)ccc1-2,active: 6.31 µM
9,COc1ccc(S(=O)(=O)CC(=O)Nc2ccccc2Cl)cc1,"inconclusive: 12.6 µM [activator, single point]"
10,CC(=O)Oc1ccc(/C=C2/Oc3ccccc3C2=O)cc1,"inconclusive: 35.5 µM [inhibitor, single point]"
11,Cc1ccnc(NC(=O)c2ccccc2NC(=O)C(C)(C)C)c1,"inconclusive: 8.2 µM [inhibitor, partial curve, poor fit]"
12,Oc1ccc(N=Nc2nccs2)c(O)c1,"inconclusive: 35.5 µM [inhibitor, single point]"
13,CC1CCN(S(=O)(=O)c2ccc(C(=O)Nc3nnc(-c4ccco4)o3)cc2)CC1,"inconclusive: 1.26 µM [activator, single point]"
14,CCCCOc1ccc(C(=O)Nc2ccc3c(c2)CCCN3C(=O)c2cccs2)cc1,"inconclusive: 3.16 µM [inhibitor, full curve, poor fit]"
15,CCOC(=O)C1CCC(CN(Cc2ccc(Cl)cc2)S(=O)(=O)c2cccc(Cl)c2C)CC1 (stereo not drawn),inactive
16,CCOC(=O)C1CCN(C(=O)c2ccccc2NC(=O)c2nsc3ccccc23)CC1,"inconclusive: 15.8 µM [inhibitor, single point]"
17,CC(C)(C)c1ccc(C(=O)CCCSC2=C(C#N)C(c3ccco3)C3=C(CCCC3=O)N2)cc1 (stereo not drawn),"inconclusive: 23.1 µM [inhibitor, partial curve]"
18,CN(C)CC[C@@H](c1ccc(Cl)cc1)c1ccccn1,inactive
19,COc1ccc(CC(=O)Nc2cccc(SC)c2)cc1,inactive
20,COc1ccc(C)cc1NC(=O)CN1CCN(S(=O)(=O)c2ccc3ccccc3c2)CC1,inactive
21,O=C(COC(=O)c1ccc2[nH]c3c(c2c1)CCCC3)Nc1ccc(Cl)cc1Cl,inactive
22,COc1ccc(CNC(=O)c2csc3c2CCCC3)cc1,inactive

# 2 entries picked at random from those above:
row,SMILES,Potency
4,Cc1ccc(S(=O)(=O)N2CCN(C(=O)c3ccc(N4CCC(C)CC4)c([N+](=O)[O-])c3)CC2)cc1,"inconclusive: 14.1 µM [inhibitor, partial curve, poor fit]"
7,CNCc1c(OCc2ccccc2)ccc2ccccc12,"inconclusive: 11.2 µM [inhibitor, single point]"

# Continuation:

row,SMILES,Potency
1,O=C(COc1cccc(Cl)c1Cl)Nc1ccc2c(c1)CCC2,"inconclusive: 31.6 µM [activator, single point]"
2,Cc1ccc2nc(/C=C/c3cccc(F)c3)ccc2c1,"inconclusive: 31.6 µM [inhibitor, partial curve, poor fit]"
3,CCN(CC)C(=S)Nc1cc(C(=O)OC)ccc1C(=O)OC,"inconclusive: 1.26 µM [inhibitor, single point]"
4,Cc1cc(NC(=O)CCCS(=O)(=O)c2nc(-c3cccs3)cc(C(F)(F)F)n2)no1,"inconclusive: 10.3 µM [inhibitor, partial curve, poor fit]"
5,Cc1cccc(C)c1NC(=O)CSc1nc(C2CC2)nc2ccccc12,"inconclusive: 35.5 µM [inhibitor, single point]"
6,Nc1ccccc1N=Cc1ccc(-c2cccc(Cl)c2)o1,"inconclusive: 15.8 µM [inhibitor, single point]"
7,COc1ccc(S(=O)(=O)N2CCOCC2)cc1NC(=O)CN1CCC(Cc2ccccc2)CC1,active: 10 µM
8,CC1=CC(C)(C)Nc2ccc(OC(=O)C(Cc3ccccc3)N3C(=O)C4CCCCC4C3=O)cc21 (stereo not drawn),active: 1.12 µM
9,CCn1c(CN2CCOCC2)nc2cc(NC(=O)c3cccc([N+](=O)[O-])c3)ccc21,inactive
10,Cn1cccc1/C=C(/C#N)c1ccc(F)cc1,"inconclusive: 2.82 µM [inhibitor, partial curve, poor fit]"
11,CCCC1(c2ccccc2)NC(=O)N(CC(=O)Nc2cc(OC)cc(OC)c2)C1=O (stereo not drawn),"inconclusive: 35.5 µM [inhibitor, single point]"
12,O=C(CSc1nnc(-c2cccnc2)o1)Oc1ccccc1,"inconclusive: 0.58 µM [activator, full curve, poor fit]"
13,COc1ccc(NC(=O)CSc2nnc(-c3ccco3)c(-c3ccco3)n2)cc1OC,"inconclusive: 10 µM [inhibitor, partial curve, poor fit]"
14,Cc1cccc(/C=N/N(CCO)C2=NS(=O)(=O)c3ccccc32)c1,"inconclusive: 10 µM [inhibitor, partial curve]"
15,CCN(C(=O)CSc1ncccc1C(=O)OC(C)C)c1cccc(C)c1,"inconclusive: 32.6 µM [inhibitor, partial curve, poor fit]"
16,CN(C)/C=C1\N=C(c2ccc(Cl)cc2Cl)OC1=O,inactive
17,Cc1ccc(-c2nnn(CC(=O)N(CCCO)C(C(=O)NC3CCCC3)c3ccc(Cl)cc3)n2)o1 (stereo not drawn),"inconclusive: 10 µM [inhibitor, partial curve, poor fit]"
18,CC(=O)CSc1nnc(-c2ccc3c(c2)OCO3)o1,"inconclusive: 16.4 µM [inhibitor, single point]"
19,Cc1nn(C(=O)c2c(F)cccc2F)c(C)c1S(=O)(=O)N1CCCCCC1,inactive
20,CCC(=O)Nc1ccc(-c2cc(-c3ccccc3)nc(-c3ccc(NC(=O)CC)cc3)n2)cc1,inactive
21,CCOC(=O)N/N=C/c1ccc(F)cc1,inactive
